Paper doi:10.1101/2024.11.04.621798
Results are given in words; binding and its absence hold for the method and conditions named. In cells and extracts the contact can be indirect.

Target: UNC-70::GFP (C. elegans beta-spectrin tagged with GFP) (C. elegans)
Assay: co-IP

B1: CLP-1::mKate (mKate knock-in at the endogenous clp-1 locus) (enzyme, UniProt P34308 1-780)
chain: MADDEEEIIQKVEVKPDEFNGLIGSIAGNLIRDKVGGAGGDILGGLASNFFGGGGGGGGGGGGGGFGGGNGGFGGGSNYDQGGNGNSGDQQKRKRDMAKDLIGGIFDNVVNRKGKKEQDNYGGGGNYGGGGGNQGGGGGGGFNFNDIGGLINSMGGGGGGGQRQGGGGGGFGDILGGIGSLIGGGGGGQYNGGGGNVNPNNLNGGMVNVIGNLIGEAAHRFLGVDPGTGRIIGAVAGNVIMGLGGKDNSLGNIGKVILDNIISGKFRRDVDPFVRPGPDPDRGGGGSGPSPISPRPTTEPQDFYELRDQCLESKRLFEDPQFLANDSSLFFSKRPPKRVEWLRPGEITREPQLITEGHSRFDVIQGELGDCWLLAAAANLTLKDELFYRVVPPDQSFTENYAGIFHFQFWQYGKWVDVVIDDRLPTSNGELLYMHSASNNEFWSALLEKAYAKLFGSYEALKGGTTSEALEDMTGGLTEFIDLKNPPRNLMQMMMRGFEMGSLFGCSIEADPNVWEAKMSNGLVKGHAYSITGCRIVDGPNGQTCILRIRNPWGNEQEWNGPWSDNSREWRSVPDSVKQDMGLKFDHDGEFWMSFDDFMRNFEKMEICNLGPDVMDEVYQMTGVKAAGMVWAANTHDGAWVRNQTAGGCRNYINTFANNPQFRVQLTDSDPDDDDELCTVIFAVLQKYRRNLKQDGLDNVPIGFAVYDAGNNRGRLSKQFFAANKSAMRSAAFINLREMTGRFRVPPGNYVVVPSTFEPNEEAEFMLRVYTNGFIESEEL
- binding: no binding
